Assay: Global warming potential (GWP), calculated for mixtures per Regulation (EU) NO 517/2014

| SMILES | GWP (pure gas) | GWP (mixed gas of CF3OCFCF2 and CO2, mixing ratio mol %, calculated per Regulation (EU) NO 517/2014) |
| --- | --- | --- |
| FS(F)(F)(F)(F)F [SF6, reference compound] | 23,500 |  |
| N#CC(F)(C(F)(F)F)C(F)(F)F [(CF3)2CFCN, heptafluoroisobutyronitrile] | 2,400 |  |
| FC(F)=C(F)OC(F)(F)F [CF3OCFCF2, trifluoromethyl trifluorovinyl ether] | 0.170 | 0.170 |

Source: patent publication US20260038709A1 (priority 2020, published 2026)
